# Measurements reported in PubChem BioAssay AID493014 (National Center for Advancing Translational Sciences (NCATS), 2011).
# In all, about 340,000 compounds went through this assay and about 170 (0.05%) were called active. Inconclusive means that the source gave no clear call. Such entries were picked first, then a sample of the others. Calls follow the shape of the dose curve; as a rule, active = well fitted inhibition curve with a large enough effect in the signal ratio, with a control signal flat (not every such curve was filed as active); inconclusive = small, poorly fitted or top-dose-only effect, or effect the other way, or a change in a side signal; inactive = flat fitted curve, though single readings scatter; the % refers to the signal ratio. Potencies beside an inconclusive call are fits to weak or partial responses and may not hold up.
# Assay: qHTS Assay to Find Inhibitors of Chronic Active B-Cell Receptor Signaling;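 as to activity change, negative = inhibition: plate controls were basal doxycycline-induced cells for no effect and cells given 10 µM MG132 for full effect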
# Conditions: ABC-DLBCL IkBa-CBG/CBR reporter, luminescence ratio (green luciferase fused to IkBa over red control in TMD8 lymphoma cells), 4 h; activity change, negative = inhibition: at 46.1 µM (top of the series) unless noted
# How it was run: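 Concentration-response series (up to 46 uM) were applied to TMD8 dual-reporter cells for 4 h at 37C with doxycycline. Green/red ratio, after filter-overlap correction, defined %Activity; red signal alone was normalised to basal cells and zero luminescence.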
# Potency is read from the fitted curve at half-maximal effect.
SMILES,Potency,"activity change, negative = inhibition"
COc1cccc(NC(=O)c2ccc3c(c2)CCCC3)c1,"inconclusive: 15.8 µM [falling, partial curve]",
Cc1ccccc1SCC(=O)NNC(=O)c1ccccc1O,"inconclusive: 28.2 µM [falling, single point]",
O=C1CCCC(O)=C1C=Nc1cccc(C(F)(F)F)c1,,inconclusive: 7.56%
CC1SC2(NC1=O)C1CC3CC(C1)CC2C3 (configuration not stated),,inconclusive: 0.801%
NS(=O)(=O)c1ccc(N2CCN(C(=O)C3COc4ccccc4O3)CC2)nc1 (configuration not stated),,inactive: 0.48%
CC(=O)Nc1ccc(S(=O)(=O)Nc2nc3ccccc3nc2Nc2ccc3ccccc3c2)cc1,"inconclusive: 16.4 µM [falling, partial curve]",
O=C(NCC(c1ccco1)S(=O)(=O)c1ccc(Cl)cc1)c1ccc(C(F)(F)F)cc1 (configuration not stated),,inactive: 2.97%
O=C1c2cccc3cccc(c23)C(=O)N1c1cccnc1,,inconclusive: -0.265%
CC(=O)OCC12COC3c4ccccc4OC(C)(CC1C)C3C2C (configuration not stated),,inconclusive: 0.581%
CCN1C(=O)c2ccc(C(=O)NCc3ccccc3)cc2C1=O,,inconclusive: 2.84%
O=c1c2ccccc2[nH]c(=S)n1CCN1CCN(Cc2ccccc2)CC1,,inactive: -1.5%
CC(=O)Nc1ccc(NC(=O)CSc2nc3c([nH]c4ccccc43)c(=O)n2-c2ccccc2F)cc1,,inconclusive: -9.8%
O=[N+]([O-])c1ccc(Cc2cncc(O)c2)cc1,,inactive: -5.23%
O=C(N=c1nc2ccccn2s1)c1ccccc1,,inconclusive: -4.08%
Cc1ccc(C(=O)NNC(=O)CCCN2C(=O)/C(=C/c3ccccc3Cl)SC2=S)cc1,"inconclusive: 5.17 µM [falling, partial curve, poor fit]",
CC1(C)CC(=O)C2=C(C1)c1c(ccc3ccccc13)NC2c1ccc(C(=O)O)cc1 (configuration not stated),,inconclusive: -3.54%
Nc1cc2c(cc1Cl)N(Cc1ccccc1)C(=O)CO2,,inconclusive: -0.279%
Cc1c(Nc2c3c(c(C#N)c4nc5ccccc5n24)CCC3)c(=O)n(-c2ccccc2)n1C,,inconclusive: 7.17%
Cc1ccc2c(C)nc(NC3=NCN(CCc4ccccc4)CN3)nc2c1,,inconclusive: 0.176%
O=c1c2ccccc2sn1-c1ccc(S(=O)(=O)N2CCCC2)cc1,,inactive: -2%
COc1ccc(C(=O)/C=C/Nc2cccc(O)c2)cc1,"inconclusive: 20.6 µM [falling, partial curve]",
O=C(c1ccccc1)c1ccc(OCC(O)CN2CCN(Cc3ccccc3)CC2)cc1 (configuration not stated),"inconclusive: 28.2 µM [falling, partial curve, poor fit]",

# Shown with tabs: part of the list above
SMILES	Potency	activity change, negative = inhibition
NS(=O)(=O)c1ccc(N2CCN(C(=O)C3COc4ccccc4O3)CC2)nc1 (configuration not stated)		inactive: 0.48%
CC(=O)Nc1ccc(S(=O)(=O)Nc2nc3ccccc3nc2Nc2ccc3ccccc3c2)cc1	inconclusive: 16.4 µM [falling, partial curve]	
